Reference: article PMC12848939
Results are given in words; binding and its absence hold for the method and conditions named. Binding seen in cells or lysates may run through a third protein. A yes stands for co-enrichment or nearness to the bait. Other partners may have been found. Blank lines part the entries; values can stand above or below the molecule they belong to.

Protein sequences, listed by entry. Tags and fused reporters are not part of them.
UniProt Q12499: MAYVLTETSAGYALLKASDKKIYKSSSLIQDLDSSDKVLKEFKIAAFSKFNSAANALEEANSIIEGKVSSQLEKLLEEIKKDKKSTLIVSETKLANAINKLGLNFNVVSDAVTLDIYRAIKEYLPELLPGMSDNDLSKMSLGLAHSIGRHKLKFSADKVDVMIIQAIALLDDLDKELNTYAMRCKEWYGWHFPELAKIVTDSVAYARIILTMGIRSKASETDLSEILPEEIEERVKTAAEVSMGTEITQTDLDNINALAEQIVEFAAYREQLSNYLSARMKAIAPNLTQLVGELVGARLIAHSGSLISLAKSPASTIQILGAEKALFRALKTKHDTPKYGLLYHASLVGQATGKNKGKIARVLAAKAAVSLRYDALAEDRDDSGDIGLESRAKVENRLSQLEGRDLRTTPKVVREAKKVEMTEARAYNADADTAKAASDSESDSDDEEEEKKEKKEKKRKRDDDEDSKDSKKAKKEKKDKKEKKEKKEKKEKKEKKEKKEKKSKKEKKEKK
UniProt P34241: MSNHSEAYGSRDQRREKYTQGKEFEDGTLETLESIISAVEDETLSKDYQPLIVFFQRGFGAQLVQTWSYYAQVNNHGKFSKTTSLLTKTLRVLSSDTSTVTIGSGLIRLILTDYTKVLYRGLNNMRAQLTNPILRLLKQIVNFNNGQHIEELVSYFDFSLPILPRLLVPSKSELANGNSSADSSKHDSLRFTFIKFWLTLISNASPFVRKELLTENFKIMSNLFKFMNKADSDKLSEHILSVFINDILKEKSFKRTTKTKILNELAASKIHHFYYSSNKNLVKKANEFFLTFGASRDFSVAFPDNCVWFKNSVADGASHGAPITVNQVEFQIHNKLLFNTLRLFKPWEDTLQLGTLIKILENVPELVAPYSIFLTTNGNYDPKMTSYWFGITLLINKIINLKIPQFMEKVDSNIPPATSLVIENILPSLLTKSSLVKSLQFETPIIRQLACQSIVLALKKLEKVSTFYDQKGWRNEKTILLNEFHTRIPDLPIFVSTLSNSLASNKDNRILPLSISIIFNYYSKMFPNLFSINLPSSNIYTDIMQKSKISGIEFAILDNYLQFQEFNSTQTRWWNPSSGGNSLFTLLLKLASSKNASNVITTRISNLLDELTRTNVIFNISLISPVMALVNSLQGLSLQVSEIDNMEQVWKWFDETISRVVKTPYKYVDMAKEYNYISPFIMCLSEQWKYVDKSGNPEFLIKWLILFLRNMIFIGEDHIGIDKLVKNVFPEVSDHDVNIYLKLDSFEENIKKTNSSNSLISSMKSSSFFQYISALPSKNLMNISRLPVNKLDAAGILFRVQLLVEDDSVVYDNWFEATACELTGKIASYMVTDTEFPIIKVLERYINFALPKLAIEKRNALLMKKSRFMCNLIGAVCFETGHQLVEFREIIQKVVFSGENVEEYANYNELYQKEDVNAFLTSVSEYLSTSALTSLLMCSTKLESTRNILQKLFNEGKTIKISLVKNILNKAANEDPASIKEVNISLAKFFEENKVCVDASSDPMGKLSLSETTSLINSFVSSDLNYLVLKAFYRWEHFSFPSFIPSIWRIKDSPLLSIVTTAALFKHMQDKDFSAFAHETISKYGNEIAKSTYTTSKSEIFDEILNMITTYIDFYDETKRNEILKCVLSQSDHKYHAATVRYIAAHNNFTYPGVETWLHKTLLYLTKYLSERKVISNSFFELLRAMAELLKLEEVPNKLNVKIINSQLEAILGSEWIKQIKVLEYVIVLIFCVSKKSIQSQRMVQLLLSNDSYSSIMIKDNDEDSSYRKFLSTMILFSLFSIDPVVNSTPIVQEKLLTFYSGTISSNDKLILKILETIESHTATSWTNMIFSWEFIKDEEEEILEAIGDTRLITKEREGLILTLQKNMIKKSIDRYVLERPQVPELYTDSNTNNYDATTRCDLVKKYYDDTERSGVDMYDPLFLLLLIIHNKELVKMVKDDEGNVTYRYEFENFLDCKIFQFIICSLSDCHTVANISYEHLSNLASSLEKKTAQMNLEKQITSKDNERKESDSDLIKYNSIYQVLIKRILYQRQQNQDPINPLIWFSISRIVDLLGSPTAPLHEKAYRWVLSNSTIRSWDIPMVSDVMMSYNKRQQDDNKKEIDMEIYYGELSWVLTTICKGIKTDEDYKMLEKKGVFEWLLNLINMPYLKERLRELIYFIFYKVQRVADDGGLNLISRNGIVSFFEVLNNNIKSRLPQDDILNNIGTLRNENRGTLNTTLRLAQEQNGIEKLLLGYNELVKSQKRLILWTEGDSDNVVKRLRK
UniProt P42945: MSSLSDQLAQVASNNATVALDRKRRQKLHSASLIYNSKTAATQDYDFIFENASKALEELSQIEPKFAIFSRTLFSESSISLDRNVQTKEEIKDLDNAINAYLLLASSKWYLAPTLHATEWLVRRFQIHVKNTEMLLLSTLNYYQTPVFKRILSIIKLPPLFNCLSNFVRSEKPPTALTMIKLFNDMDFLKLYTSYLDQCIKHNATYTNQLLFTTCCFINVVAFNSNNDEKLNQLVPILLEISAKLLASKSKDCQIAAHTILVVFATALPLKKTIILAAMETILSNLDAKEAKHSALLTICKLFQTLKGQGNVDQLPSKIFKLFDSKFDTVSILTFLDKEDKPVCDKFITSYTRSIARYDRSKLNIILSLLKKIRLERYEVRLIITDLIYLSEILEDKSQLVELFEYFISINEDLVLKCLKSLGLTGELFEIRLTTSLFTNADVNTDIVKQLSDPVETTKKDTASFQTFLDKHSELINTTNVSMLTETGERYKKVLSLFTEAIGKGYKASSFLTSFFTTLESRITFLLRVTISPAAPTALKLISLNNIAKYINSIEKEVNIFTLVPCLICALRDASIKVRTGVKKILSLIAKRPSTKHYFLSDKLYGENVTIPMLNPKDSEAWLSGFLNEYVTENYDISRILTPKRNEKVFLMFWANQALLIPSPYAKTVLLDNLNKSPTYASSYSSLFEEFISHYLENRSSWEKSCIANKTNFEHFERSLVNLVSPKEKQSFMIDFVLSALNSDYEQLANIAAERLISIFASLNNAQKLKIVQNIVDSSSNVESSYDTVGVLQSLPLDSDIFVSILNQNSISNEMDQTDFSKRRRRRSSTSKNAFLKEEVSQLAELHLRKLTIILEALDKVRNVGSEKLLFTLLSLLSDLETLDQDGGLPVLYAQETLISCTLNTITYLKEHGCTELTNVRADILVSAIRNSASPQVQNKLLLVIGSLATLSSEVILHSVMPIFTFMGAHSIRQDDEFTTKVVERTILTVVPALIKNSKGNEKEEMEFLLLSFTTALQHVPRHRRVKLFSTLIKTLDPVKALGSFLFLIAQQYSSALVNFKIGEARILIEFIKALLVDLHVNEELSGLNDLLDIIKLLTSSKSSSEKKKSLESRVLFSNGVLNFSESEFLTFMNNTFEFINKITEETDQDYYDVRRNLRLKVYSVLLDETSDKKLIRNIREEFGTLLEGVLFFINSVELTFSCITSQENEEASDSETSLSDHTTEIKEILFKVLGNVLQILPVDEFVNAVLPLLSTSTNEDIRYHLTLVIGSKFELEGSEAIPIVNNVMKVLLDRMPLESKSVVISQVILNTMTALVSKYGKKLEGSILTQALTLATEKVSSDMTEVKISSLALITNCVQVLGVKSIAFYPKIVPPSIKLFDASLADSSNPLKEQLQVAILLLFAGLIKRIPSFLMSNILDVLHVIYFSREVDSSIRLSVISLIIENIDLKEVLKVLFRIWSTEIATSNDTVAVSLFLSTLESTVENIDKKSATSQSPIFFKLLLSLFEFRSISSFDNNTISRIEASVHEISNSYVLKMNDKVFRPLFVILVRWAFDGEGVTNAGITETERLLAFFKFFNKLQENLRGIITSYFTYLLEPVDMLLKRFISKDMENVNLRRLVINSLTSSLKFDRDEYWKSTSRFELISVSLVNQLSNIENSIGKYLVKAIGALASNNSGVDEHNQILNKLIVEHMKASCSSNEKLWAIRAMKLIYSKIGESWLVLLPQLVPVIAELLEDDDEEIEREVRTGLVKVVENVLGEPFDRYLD

Experiments:
[1] = molecular target: T1, Sni445-TAP (S. cerevisiae) (UniProt P53952); experiment: affinity purification with mass spectrometry; split-tag two-step purification: first Sni445-TAP on IgG Sepharose with TEV elution, then Nop58-FLAG on anti-FLAG M2 agarose with 3x Flag peptide elution; SDS-PAGE, Coomassie, bands identified by MS
T1 sequence: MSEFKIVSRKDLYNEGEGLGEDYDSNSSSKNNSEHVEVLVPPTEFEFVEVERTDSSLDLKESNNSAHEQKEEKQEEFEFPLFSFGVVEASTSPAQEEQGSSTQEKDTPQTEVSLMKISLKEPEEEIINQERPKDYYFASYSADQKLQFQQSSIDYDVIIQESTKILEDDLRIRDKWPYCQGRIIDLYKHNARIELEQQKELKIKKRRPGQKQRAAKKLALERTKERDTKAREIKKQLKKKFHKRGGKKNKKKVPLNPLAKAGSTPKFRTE

[2] = molecular target: Nop58-FLAG (S. cerevisiae) (UniProt Q12499); experiment: as above

binding [1]: binds
binding [2]: binds
Molecule: Npa1 (from UniProt P34241 1-1764)

binding [1]: binds
binding [2]: binds
Molecule: Utp10 (from UniProt P42945 1-1769)

binding [1]: binds
binding [2]: binds
B1: Mak21 (protein, UniProt Q12176 1-1025)
chain: MSENNGNPLDLSSLRNKISSKLRDNNSKKAKKTHKGKDVKASSNSKKVNEDIRREALALGASEEDLKLIQGLSDDDDAKSEQEFDAVADEDADDKGFKNDLQNFMKNVGFDQHKLEDVDDDDIEEESTSSKESKIPAQEKEHAQSNIASSTIEKTSQESIDNGSEQEENTVEEANLSSDQEPESESAEKEKKEEKDGGLITQTTIISSDKLIIPYDKPWYEIPLDPQVGQNDDVEELSKEQIEKLFERGKQTLEADNQTYYEEFTKDSSQAKFMSQILSDGTLNDKISAVTLLIQDSPLHNTKSLETLVSYCGKKSRNSALQSLNALKDLFLNGLLPNRKLRYFKNQPGLSMMLNKKTLAIFYFEDYLKKLFFRVLEVLEVLSHDPIIHVRLQILNHVFDLLTNQPEQEFNLLRLGVNKIGDIDSKVSSKASYLLLKLEQAHPNMKSIVIDAIVDIALRPNADYHTTYYSVITLNQTILKRSEDSVANKLVKTYFTLFEKFLINTDKDNTNGVVKSNSKSYEEKRKKNFKKGKHGGKSVKIEKTENEVLDEKNSKLFSALLTGINRAFPFAQIPASVYEVHMETLFKITHSSNFNTSIQALVLINQVTVKAKLNSDRYYRTLYESLFDPRLVNSSKQGIYLNLLYKSLKQDALNVERVEAFVKRILQVCSHWLNVGTITGFFFLLIQLAKTVPQIKNLLTNTPVDYEYESDAEEEQGDKDIKRKEYDGRKRDPKFANAEKSSLWEINNFINHFHPTVKTYANAYVTGETEQIAKPDLGLFTLSHFLDRFVYRSAKQTNTARGTSIMQPLFSGSRVNDSVLVKASDIMHDQGPVNTEDWLTKKVEDIKPEDKFFYQYFTTKKTADGKGKKSNKASNFDSDDEMDENEIWSALVKSRPDVEDDSDDSELDFAEDDFSDSTSDDEPKLDAIDDEDAKSEGSQESDQEEGLDEDIFYSFDGEQDNSDKKRSFAESSEEDESSEEEKEEEENKEVSAKRAKKKQRKNMLKSLPVFASADDYAQYLDQDSD
